# Results taken from the supplement of paper PMC10849652.
# Chains of the proteins cited; added tags and fusions are not shown. Lines headed by an entry give the natural chain unless they say otherwise; changes in a name come on top.
# UniProt Q9NX76: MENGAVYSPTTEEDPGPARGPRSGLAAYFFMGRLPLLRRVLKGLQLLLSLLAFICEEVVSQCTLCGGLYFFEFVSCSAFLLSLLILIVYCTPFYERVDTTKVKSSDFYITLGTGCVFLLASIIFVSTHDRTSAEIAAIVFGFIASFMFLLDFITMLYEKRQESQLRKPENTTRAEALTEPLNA
# UniProt O75122: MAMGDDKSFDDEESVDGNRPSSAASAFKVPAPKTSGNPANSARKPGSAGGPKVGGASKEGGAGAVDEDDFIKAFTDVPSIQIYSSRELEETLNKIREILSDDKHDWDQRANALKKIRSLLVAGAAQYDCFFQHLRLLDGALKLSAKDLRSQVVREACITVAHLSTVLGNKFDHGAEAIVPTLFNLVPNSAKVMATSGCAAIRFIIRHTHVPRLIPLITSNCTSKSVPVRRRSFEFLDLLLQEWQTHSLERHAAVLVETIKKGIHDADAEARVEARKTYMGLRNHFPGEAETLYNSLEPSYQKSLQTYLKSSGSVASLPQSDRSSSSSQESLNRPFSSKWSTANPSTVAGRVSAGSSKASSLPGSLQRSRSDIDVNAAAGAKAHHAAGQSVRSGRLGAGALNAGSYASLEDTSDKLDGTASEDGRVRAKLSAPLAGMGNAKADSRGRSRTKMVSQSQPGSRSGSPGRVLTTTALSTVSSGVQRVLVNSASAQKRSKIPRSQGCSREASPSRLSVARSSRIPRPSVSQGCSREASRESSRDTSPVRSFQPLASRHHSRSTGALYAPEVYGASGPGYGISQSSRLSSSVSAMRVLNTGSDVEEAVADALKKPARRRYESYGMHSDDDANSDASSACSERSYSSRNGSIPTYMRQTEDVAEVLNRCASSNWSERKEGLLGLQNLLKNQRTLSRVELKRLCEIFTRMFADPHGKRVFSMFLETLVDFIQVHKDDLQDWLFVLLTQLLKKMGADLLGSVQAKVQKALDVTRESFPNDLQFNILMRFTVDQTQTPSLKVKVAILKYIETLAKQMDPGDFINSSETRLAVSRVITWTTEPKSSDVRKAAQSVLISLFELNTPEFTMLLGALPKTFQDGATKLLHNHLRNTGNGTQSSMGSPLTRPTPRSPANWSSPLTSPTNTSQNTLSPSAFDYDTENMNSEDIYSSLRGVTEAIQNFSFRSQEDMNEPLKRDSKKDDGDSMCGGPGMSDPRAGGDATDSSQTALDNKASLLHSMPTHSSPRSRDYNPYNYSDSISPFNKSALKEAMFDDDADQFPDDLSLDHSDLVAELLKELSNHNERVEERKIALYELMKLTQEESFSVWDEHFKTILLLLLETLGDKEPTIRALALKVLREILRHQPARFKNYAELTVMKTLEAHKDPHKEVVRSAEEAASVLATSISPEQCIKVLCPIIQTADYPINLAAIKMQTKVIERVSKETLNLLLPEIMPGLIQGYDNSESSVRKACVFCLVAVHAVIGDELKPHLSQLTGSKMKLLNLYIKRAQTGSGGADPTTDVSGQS
# UniProt O75503: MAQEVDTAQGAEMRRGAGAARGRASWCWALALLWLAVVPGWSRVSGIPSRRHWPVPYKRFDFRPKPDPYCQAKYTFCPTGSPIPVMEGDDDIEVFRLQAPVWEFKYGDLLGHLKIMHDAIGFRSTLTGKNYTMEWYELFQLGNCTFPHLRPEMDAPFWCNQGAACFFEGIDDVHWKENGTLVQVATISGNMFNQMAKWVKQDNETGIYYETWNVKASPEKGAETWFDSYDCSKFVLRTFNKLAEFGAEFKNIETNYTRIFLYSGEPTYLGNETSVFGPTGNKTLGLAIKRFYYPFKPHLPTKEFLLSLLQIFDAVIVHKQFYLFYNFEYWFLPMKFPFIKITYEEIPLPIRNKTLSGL
# UniProt Q9H5X1: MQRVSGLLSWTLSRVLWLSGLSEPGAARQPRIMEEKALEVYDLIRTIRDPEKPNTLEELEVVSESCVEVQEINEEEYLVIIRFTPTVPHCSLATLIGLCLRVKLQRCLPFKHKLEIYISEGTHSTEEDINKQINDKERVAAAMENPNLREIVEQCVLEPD
# UniProt Q14008: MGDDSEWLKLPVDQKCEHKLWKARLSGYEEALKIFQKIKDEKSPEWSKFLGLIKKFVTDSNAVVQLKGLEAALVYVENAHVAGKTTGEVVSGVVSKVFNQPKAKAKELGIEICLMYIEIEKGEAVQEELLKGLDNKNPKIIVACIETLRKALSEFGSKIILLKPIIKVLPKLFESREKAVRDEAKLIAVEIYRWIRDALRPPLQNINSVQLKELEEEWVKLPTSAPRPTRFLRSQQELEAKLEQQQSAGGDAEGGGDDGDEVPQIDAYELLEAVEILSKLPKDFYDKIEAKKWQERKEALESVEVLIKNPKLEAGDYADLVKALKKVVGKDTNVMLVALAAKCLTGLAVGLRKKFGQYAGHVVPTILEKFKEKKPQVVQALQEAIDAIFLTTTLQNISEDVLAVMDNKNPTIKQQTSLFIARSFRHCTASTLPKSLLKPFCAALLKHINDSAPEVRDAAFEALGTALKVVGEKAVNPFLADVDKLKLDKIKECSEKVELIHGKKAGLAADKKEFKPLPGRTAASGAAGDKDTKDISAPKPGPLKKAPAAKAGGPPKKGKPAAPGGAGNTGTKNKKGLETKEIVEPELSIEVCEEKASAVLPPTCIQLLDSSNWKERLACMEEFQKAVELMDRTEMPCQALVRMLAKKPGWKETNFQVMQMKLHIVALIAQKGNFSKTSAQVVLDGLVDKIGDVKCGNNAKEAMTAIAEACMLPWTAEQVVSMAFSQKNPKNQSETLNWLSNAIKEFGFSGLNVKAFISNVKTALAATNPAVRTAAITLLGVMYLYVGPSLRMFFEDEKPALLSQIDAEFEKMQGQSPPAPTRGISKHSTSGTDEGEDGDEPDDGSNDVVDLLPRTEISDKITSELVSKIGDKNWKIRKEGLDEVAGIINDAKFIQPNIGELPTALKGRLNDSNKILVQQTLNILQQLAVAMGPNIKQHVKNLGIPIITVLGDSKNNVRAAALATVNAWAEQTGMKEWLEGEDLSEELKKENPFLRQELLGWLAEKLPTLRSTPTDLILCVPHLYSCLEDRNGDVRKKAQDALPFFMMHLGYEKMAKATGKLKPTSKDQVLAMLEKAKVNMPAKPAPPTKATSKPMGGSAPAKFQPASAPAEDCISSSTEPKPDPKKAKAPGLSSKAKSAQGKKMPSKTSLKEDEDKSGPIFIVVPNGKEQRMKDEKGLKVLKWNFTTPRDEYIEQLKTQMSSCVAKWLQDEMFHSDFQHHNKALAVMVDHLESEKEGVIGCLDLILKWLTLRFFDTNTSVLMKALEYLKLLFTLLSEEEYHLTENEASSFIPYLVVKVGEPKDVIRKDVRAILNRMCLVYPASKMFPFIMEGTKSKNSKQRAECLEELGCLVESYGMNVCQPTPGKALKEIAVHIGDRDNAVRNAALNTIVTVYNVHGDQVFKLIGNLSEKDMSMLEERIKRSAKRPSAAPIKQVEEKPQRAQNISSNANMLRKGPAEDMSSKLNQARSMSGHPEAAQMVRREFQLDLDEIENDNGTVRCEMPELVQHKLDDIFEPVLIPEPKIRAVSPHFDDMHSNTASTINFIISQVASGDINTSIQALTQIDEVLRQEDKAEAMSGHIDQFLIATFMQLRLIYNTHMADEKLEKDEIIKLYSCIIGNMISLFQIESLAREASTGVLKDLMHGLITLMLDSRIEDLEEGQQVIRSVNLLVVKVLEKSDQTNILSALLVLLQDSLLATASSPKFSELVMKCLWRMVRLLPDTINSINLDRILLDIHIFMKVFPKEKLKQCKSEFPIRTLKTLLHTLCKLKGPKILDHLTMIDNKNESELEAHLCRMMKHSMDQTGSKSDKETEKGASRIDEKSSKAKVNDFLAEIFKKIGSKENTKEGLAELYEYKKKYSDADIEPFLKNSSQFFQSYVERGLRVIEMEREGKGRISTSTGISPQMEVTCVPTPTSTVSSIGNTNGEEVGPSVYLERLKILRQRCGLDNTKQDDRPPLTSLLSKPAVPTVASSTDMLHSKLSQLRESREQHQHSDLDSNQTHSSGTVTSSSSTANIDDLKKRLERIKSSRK
# UniProt P0CG13, whole entry, looked up: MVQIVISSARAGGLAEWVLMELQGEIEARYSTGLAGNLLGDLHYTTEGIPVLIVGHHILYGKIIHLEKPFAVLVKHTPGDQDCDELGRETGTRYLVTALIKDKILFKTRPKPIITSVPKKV
# UniProt Q15846: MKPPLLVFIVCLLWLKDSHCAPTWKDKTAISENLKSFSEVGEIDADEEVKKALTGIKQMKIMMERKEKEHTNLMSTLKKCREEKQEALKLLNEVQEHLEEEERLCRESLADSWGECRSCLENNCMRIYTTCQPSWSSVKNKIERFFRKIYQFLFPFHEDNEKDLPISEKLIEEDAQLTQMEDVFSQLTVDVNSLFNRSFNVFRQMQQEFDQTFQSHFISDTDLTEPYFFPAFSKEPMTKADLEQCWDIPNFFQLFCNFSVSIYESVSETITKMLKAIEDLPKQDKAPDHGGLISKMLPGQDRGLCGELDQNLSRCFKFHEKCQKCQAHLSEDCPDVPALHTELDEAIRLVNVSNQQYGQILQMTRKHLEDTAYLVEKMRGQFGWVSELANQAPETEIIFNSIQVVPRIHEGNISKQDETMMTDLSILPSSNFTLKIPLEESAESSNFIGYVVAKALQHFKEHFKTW
# UniProt Q9NY35: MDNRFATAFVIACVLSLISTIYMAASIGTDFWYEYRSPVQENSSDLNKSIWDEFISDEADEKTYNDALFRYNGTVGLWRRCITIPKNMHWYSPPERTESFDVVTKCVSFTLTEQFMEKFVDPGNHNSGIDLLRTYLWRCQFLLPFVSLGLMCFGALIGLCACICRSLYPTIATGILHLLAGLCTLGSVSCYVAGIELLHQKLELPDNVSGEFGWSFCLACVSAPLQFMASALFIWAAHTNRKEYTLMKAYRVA
# UniProt Q2KHT3: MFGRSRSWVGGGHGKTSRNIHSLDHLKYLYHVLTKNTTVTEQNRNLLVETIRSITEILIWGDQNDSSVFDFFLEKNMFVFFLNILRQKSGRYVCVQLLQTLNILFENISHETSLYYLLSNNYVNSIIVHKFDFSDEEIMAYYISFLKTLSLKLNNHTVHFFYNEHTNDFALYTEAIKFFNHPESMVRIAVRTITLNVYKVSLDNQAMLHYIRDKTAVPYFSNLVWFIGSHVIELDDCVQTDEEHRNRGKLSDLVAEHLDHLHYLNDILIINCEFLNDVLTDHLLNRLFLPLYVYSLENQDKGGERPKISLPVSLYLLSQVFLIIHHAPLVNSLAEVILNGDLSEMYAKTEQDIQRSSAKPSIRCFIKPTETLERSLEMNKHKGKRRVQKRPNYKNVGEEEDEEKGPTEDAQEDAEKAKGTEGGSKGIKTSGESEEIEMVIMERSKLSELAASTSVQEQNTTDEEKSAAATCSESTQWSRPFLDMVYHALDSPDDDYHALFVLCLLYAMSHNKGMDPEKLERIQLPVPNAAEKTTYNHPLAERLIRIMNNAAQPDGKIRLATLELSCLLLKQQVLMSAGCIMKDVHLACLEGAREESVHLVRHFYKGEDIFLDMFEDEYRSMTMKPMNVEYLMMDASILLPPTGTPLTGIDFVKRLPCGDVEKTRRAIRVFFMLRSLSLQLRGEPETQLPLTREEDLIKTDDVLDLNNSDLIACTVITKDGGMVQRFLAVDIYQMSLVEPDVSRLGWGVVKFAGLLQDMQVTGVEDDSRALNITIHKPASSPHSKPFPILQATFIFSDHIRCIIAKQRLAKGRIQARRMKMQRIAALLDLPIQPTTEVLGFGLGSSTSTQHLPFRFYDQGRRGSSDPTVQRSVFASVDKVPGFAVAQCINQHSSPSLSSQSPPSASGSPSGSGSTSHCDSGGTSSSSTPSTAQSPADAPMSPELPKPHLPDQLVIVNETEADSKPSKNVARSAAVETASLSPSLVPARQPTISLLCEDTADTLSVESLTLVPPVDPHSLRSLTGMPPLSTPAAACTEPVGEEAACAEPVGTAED
# UniProt O96005: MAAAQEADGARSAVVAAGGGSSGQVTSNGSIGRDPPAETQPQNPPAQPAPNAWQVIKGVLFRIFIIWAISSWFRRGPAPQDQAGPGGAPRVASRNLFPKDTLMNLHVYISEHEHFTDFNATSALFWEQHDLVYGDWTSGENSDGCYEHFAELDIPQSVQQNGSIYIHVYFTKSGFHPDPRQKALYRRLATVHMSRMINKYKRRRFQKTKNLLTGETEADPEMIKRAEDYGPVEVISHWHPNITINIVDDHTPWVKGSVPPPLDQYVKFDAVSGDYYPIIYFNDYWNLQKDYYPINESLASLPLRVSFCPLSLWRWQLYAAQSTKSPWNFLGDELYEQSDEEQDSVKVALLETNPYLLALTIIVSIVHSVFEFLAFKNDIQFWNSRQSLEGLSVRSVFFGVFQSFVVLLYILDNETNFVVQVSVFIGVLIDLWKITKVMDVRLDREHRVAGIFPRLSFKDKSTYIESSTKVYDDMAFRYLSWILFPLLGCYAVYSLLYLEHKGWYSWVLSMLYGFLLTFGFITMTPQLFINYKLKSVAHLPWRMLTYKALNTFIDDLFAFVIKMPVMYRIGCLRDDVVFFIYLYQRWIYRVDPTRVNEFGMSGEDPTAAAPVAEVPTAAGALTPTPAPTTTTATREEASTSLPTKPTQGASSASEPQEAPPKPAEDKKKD
# Some of the results follow.
# Compound: c1ccc([C@@H]2C[C@H]2NC2CCNCC2)cc1
# Assay: log2 fold change, soluble protein after heating vs DMSO (PISA); higher = thermal stabilisation; K562 lysate, 10 uM; active = over 0.2 and 3.5 SD of the protein, either way, in both replicates (recomputed)
# Procedure, shortened: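 Values give the log-two fold change in thermal stability against solvent controls, from duplicates. Crude K562 extract at 1 mg/mL protein, made by dounce homogenisation in PBS pH 7.4 with 1 mM MgCl2, was treated with 10 μM compound for 30 min. After 3 min heating across 48°C-58°C, aliquots were pooled, adjusted to 0.5% NP-40 at 4°C and centrifuged at 21,000xg for 90 min. The supernatant was measured by TMTpro 16plex LC-MS/MS with channel sums equalised.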
row,Target,log2 fold change
1,CMTM6 (UniProt Q9NX76),inactive: -0.066
2,CKAP4 (UniProt Q07065),inactive: 0.231
3,CLASP2 (UniProt O75122),inactive: 0.002
4,CLN5 (UniProt O75503),inactive: 0.009
5,CIAO3 (UniProt Q9H6Q4),inactive: -0.015
6,CLDN12 (UniProt P56749),inactive: 0.036
7,CIAO2A (UniProt Q9H5X1),inactive: 0.064
8,CLIC6 (UniProt Q96NY7),inactive: -0.046
9,CKMT1A (UniProt P12532),inactive: -0.018
10,CLIP1 isoform 1 (UniProt P30622),inactive: -0.019
11,CLCC1 (UniProt Q96S66),inactive: -0.041
12,CHD5 (UniProt Q8TDI0),inactive: 0.032
13,CLN8 (UniProt Q9UBY8),inactive: -0.073
14,CKAP5 (UniProt Q14008),inactive: 0.048
15,CHTF8 (UniProt P0CG13),inactive: 0.033
16,CHPF (UniProt Q8IZ52),inactive: -0.089
17,CHMP4A (UniProt H0YIN6),inactive: -0.12
18,CLIP4 (UniProt Q8N3C7),inactive: 0.001
19,CLUL1 (UniProt Q15846),inactive: -0.042
20,CHAF1A (UniProt Q13111),inactive: 0.022
21,CLDND1 (UniProt Q9NY35),inactive: -0.054
22,CLEC16A (UniProt Q2KHT3),inactive: 0.058
23,CLPTM1 (UniProt O96005),inactive: -0.072

# A second format for part of the listing above:
row | Target | log2 fold change
2 | CKAP4 (UniProt Q07065) | inactive: 0.231
3 | CLASP2 (UniProt O75122) | inactive: 0.002
4 | CLN5 (UniProt O75503) | inactive: 0.009
5 | CIAO3 (UniProt Q9H6Q4) | inactive: -0.015
6 | CLDN12 (UniProt P56749) | inactive: 0.036
7 | CIAO2A (UniProt Q9H5X1) | inactive: 0.064
